PubChem BioAssay AID1259254 | NCATS, 2017

Screen: 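Finding genes that stop cells copying their DNA twice in one cycle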 (primary screen)
Cell system: human HCT116 colorectal cancer cells
Reagents: single siRNA against human genes
Duration: 3 days
Detection: 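Imaged Hoechst DNA stain sorts each cell into a cycle phase by DNA amount; per plate, G2 fraction set to 0% for non-targeting and 100% for GMNN siRNA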
Reading the numbers: G2 robust z-score: higher = more G2 cells, more excess DNA replication
Call rule: 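Active siRNAs have a G2 robust z of 5 or more median absolute deviations over the median, which in these data means about 38% or higher of GMNN control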
In all, the deposit lists about 59,000 reagents; below is a part drawn at random. About 1,550 of all reagents (2.6%) were called active. 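G2 share is only a proxy for re-replication; each gene was hit by three separate siRNAs, and active genes were retested.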 Unmarked entries are inactive. The numbers tell different reagents against one gene apart. Not all columns of the deposit are shown. Not stated in the record: the amount of reagent.

gene knocked down	siRNA no.	G2 robust z-score
TSEN15	1	0.635
TSEN15	2	-0.444
TSEN15	3	0.0442
ADAMTS19	1	1.61
ADAMTS19	2	-0.381
ADAMTS19	3	-1.03
H3C4	1	-0.745
H3C4	2	0.133
H3C4	3	1.19
TMEM14B	1	1.91
TMEM14B	2	-0.961
TMEM14B	3	-0.0656
GASK1A	1	1
GASK1A	2	0.288
GASK1A	3	-0.264
TSSK1B	1	-0.613
TSSK1B	2	0.988
TSSK1B	3	-0.0213
RPL27A	1	3.65
RPL27A	2	4.54
RPL27A	3	1.17
NCOA5	1	-0.416
NCOA5	2	-0.966
NCOA5	3	-0.605
HADH	1	-0.45
HADH	2	-0.638
HADH	3	2.2
C2orf15	1	-0.255
C2orf15	2	-0.907
C2orf15	3	-0.776
PPP2R2C	1	-0.135
PPP2R2C	2	0.735
PPP2R2C	3	0.0713
UTP14A	1	4.8
UTP14A	2	0.687
UTP14A	3	0.995
ZNF177	1	-0.374
ZNF177	2	0.0444
ZNF177	3	0.964
OR6C3	1	2.2
OR6C3	2	-0.47
OR6C3	3	9.15 (active)

Next part (8 carried over from the part before).
gene knocked down	siRNA no.	G2 robust z-score
UTP14A	2	0.687
UTP14A	3	0.995
ZNF177	1	-0.374
ZNF177	2	0.0444
ZNF177	3	0.964
OR6C3	1	2.2
OR6C3	2	-0.47
OR6C3	3	9.15 (active)
BEND2	1	-0.59
BEND2	2	2.01
BEND2	3	-0.191
ZNF182	1	-0.629
ZNF182	2	0.964
ZNF182	3	-0.029
RPL10A	1	4.05
RPL10A	2	3.86
RPL10A	3	3.14
GP9	1	-0.889
GP9	2	3.43
GP9	3	-0.69
PIGB	1	-0.992
PIGB	2	0.147
PIGB	3	-0.0644
GPRASP1	1	-0.917
GPRASP1	2	-0.421
GPRASP1	3	0.926
FNTB	1	-0.919
FNTB	2	-0.899
FNTB	3	0.1
PLPPR1	1	0.744
PLPPR1	2	1.31
PLPPR1	3	-0.202
BOC	1	1.75
BOC	2	-0.451
BOC	3	-0.324
